At least one peptide structure holds a part that was inferred or is arguable (an end, a ring closure or a residue).
Test: Circular dichroism (alpha-helicity) of peptide in water
Format: physicochemical
Conditions: ratio of mean residue ellipticity at 222 nm to 208 nm, 75 μM in water
Source text: Alpha-helicity of a peptide is typically determined by measuring its circular dichroism (CD), and CD data is normally presented as mean residue ellipticies [.THETA.]m. Alpha-helical peptides show two negative Cotton effects at 208 nm and 222 nm, and a positive Cotton effect at 193 nm, while the CD spectra of peptides with random coil secondary structure are dominated by the increasing negative Cotton effect at shorter wavelength. Alpha-helicity may be estimated from the value at 222 nm, and by comparing the negative Cotton effects at 222nm and 208nm. Increasing fraction of [.THETA.]m (222 nm) divided by [.THETA.]m(208 nm) correlates with increasing alpha-helicity. High values for [.THETA.]m(208 nm) compared to [.THETA.]m (222 nm) and a shifting minimum from 208 nm to shorter wavelengths indicate random coil conformation.
An NPY analog having the structure Ac-RAAANLITRQRY--NH2 was synthesized according to standard solid phase peptide synthetic techniques. The NPY analog was then dissolved in water at a concentration of 75 μM, and its CD measured using a JASCO J500 CD spectrometer at a temperature of both 3° C. and 25° C. Structure VI was synthesized according to Example 3, and its CD was similarly measured at both 3° C. and 25° C. (at a concentration of 75 μM).

CC[C@H](C)[C@H](NC(=O)[C@H](CC(C)C)NC(=O)[C@H](CC(N)=O)NC(=O)C(C)(C)N1NC(=O)C[C@H](NC(=O)[C@H](CCCNC(=N)N)NC(C)=O)C1=O)C(=O)N[C@H](C(=O)N[C@@H](CCCNC(=N)N)C(=O)N[C@@H](CCC(N)=O)C(=O)N[C@@H](CCCNC(=N)N)C(=O)N[C@@H](Cc1ccc(O)cc1)C(N)=O)[C@@H](C)O [Structure VI]
Circular Dichroism 222/208 3° C. (3° C.): 0.64
Circular Dichroism 222/208 25° C. (25° C.): 0.66

From patent US5710245A, “Alpha-helix mimetics and methods relating thereto” (Molecumetics, Ltd., priority 1995, dated 1998)
